Assay results: patent US11926837B2, “Compositions and methods for controlling plant growth” (PLANTARC BIO LTD., priority 2019, dated 2024)
Some of these results come from one statement about several compounds together. At least one compound was matched to its structure with a doubt left.

tested on: HPPD derived from the novel Trichoderma fungus (TP); assay: Bacterial HPPD-activity assay, E. coli BL21 (DE3) transformed with Trichoderma HPPD, brown halo; assay type: cell-based, Trichoderma spp.; settings: E. coli BL21 (DE3) on agar screen plates, 25° C., 4 days

Row | SMILES | HPPD inhibitor concentration on plates at which HPPD activity (brown halo) was still detected [µg/mL]
1 | CS(=O)(=O)c1cc(C(F)(F)F)ccc1C(=O)c1cnoc1C1CC1 [Isoxaflutole, isoxaflutole] | ≤ 25
2 | Cc1c(C(=O)c2cnn(C)c2O)ccc(S(C)(=O)=O)c1C1=NOCC1 [Topramezone, topramezone] | ≤ 25
3 | CS(=O)(=O)c1ccc(C(=O)C2C(=O)CCCC2=O)c([N+](=O)[O-])c1 [Mesotrione, mesotrione] | ≤ 250
4 | CS(=O)(=O)c1ccc(C(=O)C2C(=O)CCCC2=O)c(Cl)c1COCC(F)(F)F [Tembotrione, tembotrione] | ≤ 250
